In paper PMC9544338:
These are yes or no findings as the source states them, for the method shown. Binding seen in cells or lysates may run through a third protein. Some results given as binding are weak or reduced against the parent protein; the word gives no strength. Tags and fused reporters may be left off the sequences shown.

The chains behind the UniProt entries cited, without tags or fusion partners. Where a name states a change or a piece, a line headed by the entry shows the natural chain unless it says otherwise.
UniProt P09471: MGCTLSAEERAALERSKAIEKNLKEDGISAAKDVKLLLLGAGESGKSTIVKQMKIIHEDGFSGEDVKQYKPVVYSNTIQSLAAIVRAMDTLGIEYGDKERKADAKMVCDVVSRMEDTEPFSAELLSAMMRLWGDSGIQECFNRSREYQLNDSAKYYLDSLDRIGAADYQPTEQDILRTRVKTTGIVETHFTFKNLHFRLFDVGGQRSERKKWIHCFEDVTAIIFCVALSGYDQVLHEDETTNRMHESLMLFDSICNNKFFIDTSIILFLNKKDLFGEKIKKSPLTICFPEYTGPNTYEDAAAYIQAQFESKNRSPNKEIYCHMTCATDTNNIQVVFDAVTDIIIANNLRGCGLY

Legend:
[1] = molecular target: Gαo-GFP (C-terminally tagged) wild type (human) (UniProt P09471); experiment: co-IP; N2a cells cotransfected with His6-RGS19 and Gαo-GFP variants (internally or C-terminally tagged); cells untreated or treated with DMSO (100 μM ZnCl2 was ineffective); IP of Gαo with a nanobody against GFP; Western blot against GFP and His6
[2] = molecular target: Gαo-GFP (internally tagged) wild type (human) (UniProt P09471); experiment: as above
[3] = molecular target: Gαo[E246K]-GFP (C-terminally tagged) (human) (UniProt P09471); experiment: as above
[4] = molecular target: Gαo[E246K]-GFP (internally tagged) (human) (UniProt P09471); experiment: as above
[5] = molecular target: Gαo[G203R]-GFP (C-terminally tagged) (human) (UniProt P09471); experiment: as above
[6] = molecular target: Gαo[G203R]-GFP (internally tagged) (human) (UniProt P09471); experiment: as above
[7] = molecular target: Gαo[Q205L]-GFP (internally tagged) (human) (UniProt P09471); experiment: as above
[8] = molecular target: Gαo[R209C]-GFP (C-terminally tagged) (human) (UniProt P09471); experiment: as above
[9] = molecular target: Gαo[R209C]-GFP (internally tagged) (human) (UniProt P09471); experiment: as above
[10] = molecular target: Gαo wild type (construct of fig. S2, tag not shown) (human) (UniProt P09471); experiment: co-IP + pull-down; N2a cells cotransfected with Gαo variants and the Golgi partners (fig. S2, B to G); immunoprecipitation with anti-GFP nanobody or glutathione pull-down, which one for which partner was not shown
[11] = molecular target: Gαo[E246K] (construct of fig. S2, tag not shown) (human) (UniProt P09471); experiment: as above
[12] = molecular target: Gαo[G203R] (construct of fig. S2, tag not shown) (human) (UniProt P09471); experiment: as above
[13] = molecular target: Gαo[R209C] (construct of fig. S2, tag not shown) (human) (UniProt P09471); experiment: as above
[14] = molecular target: Gαo-GST-HA (C-terminally tagged) wild type (human) (UniProt P09471); experiment: pull-down; N2a cells cotransfected with AGS3-GFP and Gαo-GST-HA variants; pull-down of Gαo from the lysate with glutathione beads; Western blot against HA and GFP; also after DMSO or 1 μM ZPT for 3 hours (ZPT increased the binding to G203R and decreased it to E246K)
[15] = molecular target: Gαo[E246K]-GST-HA (C-terminally tagged) (human) (UniProt P09471); experiment: as above
[16] = molecular target: Gαo[G203R]-GST-HA (C-terminally tagged) (human) (UniProt P09471); experiment: as above
[17] = molecular target: Gαo[R209C]-GST-HA (C-terminally tagged) (human) (UniProt P09471); experiment: as above

B1: His6-RGS19 (protein, UniProt P49795 1-217)
chain: MPTPHEAEKQITGPEEADRPPSMSSHDTASPAAPSRNPCCLCWCCCCSCSWNQERRRAWQASRESKLQPLPSCEVCATPSPEEVQSWAQSFDKLMHSPAGRSVFRAFLRTEYSEENMLFWLACEELKAEANQHVVDEKARLIYEDYVSILSPKEVSLDSRVREGINKKMQEPSAHTFDDAQLQIYTLMHRDSYPRFLSSPTYRALLLQGPSQSSSEA
[1]
  binding: binds
[2]
  binding: binds
[3]
  binding: binds weakly
[4]
  binding: binds weakly
[5]
  binding: binds weakly
[6]
  binding: binds weakly
[7]
  binding: binds
[8]
  binding: binds weakly
[9]
  binding: binds weakly

B2: GFP-Rab3a (protein, UniProt P20336 1-220)
chain: MASATDSRYGQKESSDQNFDYMFKILIIGNSSVGKTSFLFRYADDSFTPAFVSTVGIDFKVKTIYRNDKRIKLQIWDTAGQERYRTITTAYYRGAMGFILMYDITNEESFNAVQDWSTQIKTYSWDNAQVLLVGNKCDMEDERVVSSERGRQLADHLGFEFFEASAKDNINVKQTFERLVDVICEKMSESLDTADPAVTGAKQGPQLSDQQVPPHQDCAC
[10]
  binding: binds
[11]
  binding: binds
[12]
  binding: binds
[13]
  binding: binds

B3: AGS3-GFP (protein, UniProt Q86YR5 1-675)
chain: MAGPAPPVADELPGPAARRLYSRMEASCLELALEGERLCKAGDFKTGVAFFEAAVQVGTEDLKTLSAIYSQLGNAYFYLKEHGRALEYHKHDLLLARTIGDRMGEAKASGNLGNTLKVLGRFDEAAVCCQRHLSIAQEQGDKVGEARALYNIGNVYHAKGKQLSWNAANATQDPGHLPPDVRETLCKASEFYERNLSLVKELGDRAAQGRAYGNLGNTHYLLGNFTEATTFHKERLAIAKEFGDKAAERRAYSNLGNAHVFLGRFDVAAEYYKKTLQLSRQLRDQAVEAQACYSLGNTYTLLQDYERAAEYHLRHLLIAQELADRVGEGRACWSLGNAYVSMGRPAQALTFAKKHLQISQEIGDRHGELTARMNVAQLQLVLGRLTSPAASEKPDLAGYEAQGARPKRTQRLSAETWDLLRLPLEREQNGDSHHSGDWRGPSRDSLPLPVRSRKYQEGPDAERRPREGSHSPLDSADVRVHVPRTSIPRAPSSDEECFFDLLTKFQSSRMDDQRCPLDDGQAGAAEATAAPTLEDRIAQPSMTASPQTEEFFDLIASSQSRRLDDQRASVGSLPGLRITHSNAGHLRGHGEPQEPGDDFFNMLIKYQSSRIDDQRCPPPDVLPRGPTMPDEDFFSLIQRVQAKRMDEQRVDLAGGPEQGAGGPPEPQQQCQPGAS
[14]
  binding: binds
[15]
  binding: binds
[16]
  binding: binds
[17]
  binding: binds
